Results published in PubChem BioAssay AID330 (DTP/NCI, 2004).
The list shows only some results of the screen, not a fair sample: it is rich in T/C values a quarter to a half above the control, in often repeated tests (any T/C) and in doses without a T/C. Other doses and runs of a compound stand elsewhere. T/C is the treated group as % of the vehicle group. Some doses have a count of surviving animals in place of a T/C: the source files T/C as zero there, which appears to mark a toxic dose or a test without result, not a measured value. Some doses without a T/C left all or most animals alive at the check, yet need not have been tolerated: the source hardly ever lists a survival T/C far under the control, and the zero likely stands for such cases as well. Survivors were counted at the toxicity check, usually on the fifth day, unless a day is given; later deaths do not show. Schedules are NCI's codes, taken here to give the interval after Q, in days (D) or hours (H), and the number of doses after X. Some entries hold several experiments; the values are given in rising order. For survival time, the PubChem record calls one and a half times the control and up active, and a quarter to a half above the control has no call in these data; cut-offs in other NCI protocols can differ.

Test system: P388 leukemia ip, CD2F1 mice, survival T/C
Experiment: NCI In Vivo Anticancer Drug Screen. Data for tumor model P388 Leukemia (intraperitoneal) in CD2F1 (CDF1) mice
Settings: T/C endpoint: median survival time, higher T/C = longer survival
[1] = dose: 3.12 mg/kg/injection, schedule: Q01DX005 (ip), vehicle: Klucel (hydroxypropylcellulose) (HPC)
[2] = dose: 12.5 mg/kg/injection, schedule: Q01DX005 (ip), vehicle: Klucel (hydroxypropylcellulose) (HPC)
[3] = dose: 50.0 mg/kg/injection, schedule: Q01DX005 (ip), vehicle: Klucel (hydroxypropylcellulose) (HPC)
[4] = dose: 100.0 mg/kg/injection, schedule: Q01DX005 (ip), vehicle: Klucel (hydroxypropylcellulose) (HPC)
[5] = dose: 200.0 mg/kg/injection, schedule: Q01DX005 (ip), vehicle: Klucel (hydroxypropylcellulose) (HPC)
[6] = dose: 400.0 mg/kg/injection, schedule: Q04DX003 (ip), vehicle: Klucel (hydroxypropylcellulose) (HPC)
[7] = dose: 200.0 mg/kg/injection, schedule: Q04DX003 (ip), vehicle: Klucel (hydroxypropylcellulose) (HPC)
[8] = dose: 100.0 mg/kg/injection, schedule: Q04DX003 (ip), vehicle: suspension in saline
[9] = dose: 200.0 mg/kg/injection, schedule: Q01DX009 (ip), vehicle: other
[10] = dose: 400.0 mg/kg/injection, schedule: Q01DX009 (ip), vehicle: other

## [I][Pt+2][I].[NH-]C(c1ccccc1)C([NH-])c1ccccc1 (configuration not stated)
dose: 50.0 mg/kg/injection, schedule: Q04DX002 (ip), vehicle: saline with Tween-80
  T/C: 128 % of control
dose: 100.0 mg/kg/injection, schedule: Q04DX002 (ip), vehicle: saline with Tween-80
  T/C: 128 % of control

## COC1OC2COC(c3ccccc3)OC2C(O)[CH]1[Hg][O]C(C)=O (configuration not stated)
dose: 3.13 mg/kg/injection, schedule: Q01DX009 (ip), vehicle: water
  survivor count: 5 of 5
dose: 6.25 mg/kg/injection, schedule: Q01DX009 (ip), vehicle: water
  survivor count: 5 of 5
dose: 12.5 mg/kg/injection, schedule: Q01DX009 (ip), vehicle: water
  survivor count: 3 of 5
dose: 25.0 mg/kg/injection, schedule: Q01DX009 (ip), vehicle: distilled water + Tween-80
  survivor count: 2 of 6
dose: 25.0 mg/kg/injection, schedule: Q01DX009 (ip), vehicle: water
  survivor count: 0 of 5
dose: 50.0 mg/kg/injection, schedule: Q01DX009 (ip), vehicle: distilled water + Tween-80
  survivor count: 0 of 6
dose: 50.0 mg/kg/injection, schedule: Q01DX009 (ip), vehicle: water
  survivor count: 0 of 5

## CCOC1=N[C@H]2CCCC[C@H]2N1
dose: 120.0 mg/kg/injection, schedule: Q01DX005 (ip), vehicle: saline
  survivor count: 0 of 6
dose: 240.0 mg/kg/injection, schedule: Q01DX005 (ip), vehicle: saline
  survivor count: 0 of 6

## Cc1ccc(S(=O)(=O)N/N=C/c2cc([N+](=O)[O-])ccc2O)cc1
dose: 200.0 mg/kg/injection, schedule: Q01DX005 (ip), vehicle: distilled water + Tween-80
  survivor count: 0 of 5

## C[CH2][Sn]([CH2]C)([n]1cnc2ccccc21)[n]1cnc2ccccc21
[1]
  T/C: 129 % of control
[2]
  T/C: 126 % of control
  survivor count: 1 of 6
[3]
  survivor count: 0 of 6
[4]
  survivor count: 0 of 6
[5]
  survivor count: 0 of 6

## CC(=O)NC1CC(=O)N(c2ccc(Cl)cc2)C1=O (configuration not stated)
dose: 200.0 mg/kg/injection, schedule: Q01DX009 (ip), vehicle: Klucel (hydroxypropylcellulose) (HPC)
  T/C: 125 % of control
[6]
  survivor count: 3 of 6

## COc1ccc(-c2nc3c(=O)n(C)c(=O)nc-3n(C)n2)cc1OC
dose: 25.0 mg/kg/injection, schedule: Q04DX003 (ip), vehicle: Klucel (hydroxypropylcellulose) (HPC)
  survivor count: 3 of 6
dose: 50.0 mg/kg/injection, schedule: Q04DX003 (ip), vehicle: Klucel (hydroxypropylcellulose) (HPC)
  survivor count: 1 of 6
dose: 100.0 mg/kg/injection, schedule: Q04DX003 (ip), vehicle: Klucel (hydroxypropylcellulose) (HPC)
  survivor count: 0 of 6 and 1 of 6
[7]
  survivor count: 0 of 6
[6]
  survivor count: 1 of 6

## CC1=NC(C#N)=C(C#N)N=C(C)C1
dose: 100.0 mg/kg/injection, schedule: Q01DX009 (ip), vehicle: Klucel (hydroxypropylcellulose) (HPC)
  survivor count: 5 of 6

## N/C(=C\c1cnc2ccccc2n1)c1ccccc1Cl
dose: 240.0 mg/kg/injection, schedule: Q01DX005 (ip), vehicle: Klucel (hydroxypropylcellulose) (HPC)
  survivor count: 6 of 6

## Cc1ccc(N/N=c2\c3nc4ccccc4nc2n(-c2ccccc2C)c(=S)n3-c2ccccn2)cc1
dose: 200.0 mg/kg/injection, schedule: Q01DX005 (ip), vehicle: saline with Tween-80
  survivor count: 2 of 6

## CC1=C(CO)C(=O)OC(C(C)C2CCC3C4CC5OC56C(O)C(N5CC5)=CC(=O)C6(C)C4CCC23C)C1 (configuration not stated)
dose: 80.0 mg/kg/injection, schedule: Q01DX005 (ip), vehicle: Klucel (hydroxypropylcellulose) (HPC)
  T/C: 149 % of control
dose: 160.0 mg/kg/injection, schedule: Q01DX005 (ip), vehicle: Klucel (hydroxypropylcellulose) (HPC)
  survivor count: 1 of 5

## O=c1ccnc[nH]1
dose: 400.0 mg/kg/injection, schedule: Q04DX002 (ip), vehicle: saline with Tween-80
  survivor count: 3 of 6

## O=c1oc2ccccc2c(O)c1C(c1ccc2c(c1)OCO2)c1c(O)c2ccccc2oc1=O
dose: 60.0 mg/kg/injection, schedule: Q01DX005 (ip), vehicle: saline with Tween-80
  survivor count: 4 of 6 and 6 of 6
dose: 120.0 mg/kg/injection, schedule: Q01DX005 (ip), vehicle: saline with Tween-80
  survivor count: 3 of 6
dose: 240.0 mg/kg/injection, schedule: Q01DX005 (ip), vehicle: saline with Tween-80
  survivor count: 0 of 6

## CCN(CC)CC[n+]1ccc2c(C)c3[nH]c4ccc(O)cc4c3c(C)c2c1
dose: 25.0 mg/kg/injection, schedule: Q04DX003 (ip), vehicle: water
  survivor count: 3 of 5
dose: 50.0 mg/kg/injection, schedule: Q04DX003 (ip), vehicle: water
  survivor count: 1 of 5
dose: 100.0 mg/kg/injection, schedule: Q04DX003 (ip), vehicle: saline
  survivor count: 3 of 6
[8]
  survivor count: 0 of 6
dose: 200.0 mg/kg/injection, schedule: Q04DX003 (ip), vehicle: saline
  survivor count: 0 of 6
dose: 200.0 mg/kg/injection, schedule: Q04DX003 (ip), vehicle: suspension in saline
  survivor count: 1 of 6

## O=[N+]([O-])CCCN=NN1CCCCC1
dose: 100.0 mg/kg/injection, schedule: Q04DX002 (ip), vehicle: saline
  survivor count: 6 of 6
dose: 200.0 mg/kg/injection, schedule: Q04DX002 (ip), vehicle: saline
  survivor count: 6 of 6
dose: 400.0 mg/kg/injection, schedule: Q04DX002 (ip), vehicle: saline
  survivor count: 6 of 6

## CNC(=O)Oc1ccc2c(c1)[C@]1(C)CCN(C)O[C@@H]1N2C
[1]
  survivor count: 5 of 5
[2]
  survivor count: 0 of 5
dose: 25.0 mg/kg/injection, schedule: Q01DX005 (ip), vehicle: Klucel (hydroxypropylcellulose) (HPC)
  survivor count: 0 of 5
[3]
  survivor count: 0 of 5

## COc1cc2c3c(cccc3c1)C(=O)N(CCN1CCCC1)C2=O
dose: 138.6 mg/kg/injection, schedule: Q01DX009 (ip), vehicle: saline with Tween-80
  survivor count: 6 of 6

## O=C1C2=C(Nc3ccccc3N2)OC1c1ccco1 (configuration not stated)
[4]
  survivor count: 6 of 6
[5]
  survivor count: 6 of 6

## CC(C)CC(NC(=O)C(Cc1c[nH]c2ccccc12)NC(=O)OC(C)(C)C)C(=O)NN (configuration not stated)
[9]
  T/C: 126 and 145 % of control
[10]
  survivor count: 4 of 6

## Oc1ccc(N=Nc2ccc3ccc4cccc5ccc2c3c45)c2cccnc12
[7]
  survivor count: 6 of 6
[6]
  survivor count: 5 of 6

## NC(=S)N/N=C/c1ccnnc1
dose: 50.0 mg/kg/injection, schedule: Q04DX003 (ip), vehicle: suspension in saline
  survivor count: 6 of 6
[8]
  survivor count: 6 of 6

## Cn1c(=O)ccc2c(=O)c3ccccc3[se]c21
dose: 79.25 mg/kg/injection, schedule: Q01DX001 (ip), vehicle: saline with Tween-80
  survivor count: 0 of 6
dose: 158.5 mg/kg/injection, schedule: Q01DX001 (ip), vehicle: saline with Tween-80
  survivor count: 0 of 6
dose: 317.0 mg/kg/injection, schedule: Q01DX001 (ip), vehicle: saline with Tween-80
  survivor count: 0 of 6

## O=[N+]([O-])/C=C/c1ccc(Cl)cc1Cl
dose: 160.0 mg/kg/injection, schedule: Q04DX003 (ip), vehicle: saline with Tween-80
  survivor count: 2 of 6

## COc1nc(Cl)nc(OC)n1
dose: 50.0 mg/kg/injection, schedule: Q01DX009 (ip), vehicle: saline with Tween-80
  survivor count: 6 of 6
dose: 100.0 mg/kg/injection, schedule: Q01DX009 (ip), vehicle: saline with Tween-80
  survivor count: 6 of 6

## Cc1cccc(C(=O)N2C(=O)Cc3ccccc32)c1
dose: 400.0 mg/kg/injection, schedule: Q01DX001 (ip), vehicle: Klucel (hydroxypropylcellulose) (HPC)
  survivor count: 6 of 6

## O=C1c2ccccc2C(=O)c2c(NCCN3CCCCC3)ccc(NCCN3CCCCC3)c21
[9]
  survivor count: 3 of 6
[10]
  survivor count: 0 of 6

## CC(=O)N(Cc1cnc2nc(N)[nH]c(=O)c2n1)c1ccc(C(=O)NC(CCC(=O)O)C(=O)O)cc1 (configuration not stated)
dose: 200.0 mg/kg/injection, schedule: Q01DX009 (ip), vehicle: saline
  survivor count: 6 of 6
dose: 400.0 mg/kg/injection, schedule: Q01DX009 (ip), vehicle: saline
  survivor count: 0 of 6
